Among the data in patent US4636490A (Sanofi, priority 1983, dated 1987) are step yield values, retold here.

HELM strings list residues between dots; [ac] is acetyl, [am] amide, other brackets name non-standard units.

The first series is described as follows: general procedure: solution-phase peptide synthesis; p-nitrophenyl (ONp) active esters with HOBt and DIEA. Conditions: coupling step, trifluoroacetate.
For the substance Boc-Tyr-Gly-Trp-Met-Asp(βOBzl)-NH2, the step yield was 72%.

Turning to Z-Glu(OBut)-Ala-Tyr-Gly ester (step d), the step yield was determined as 85%.

On to Boc-Gly-Trp-Met-Asp(βOBzl)-NH2, for which the step yield stood at 86%.

The substance Boc-Met-Gly-Trp-Met-Asp(βOBu^t)-NH2 registered a step yield of 75%.

In the case of “protected heptapeptide of Z-Glu-Ala-Tyr-Gly-Trp-Met-Asp-NH2”, the step yield was determined as 72%.

The substance Z-Gly-Trp-Met-Asp(βOBu^t)-NH2 registered a step yield of 75%.

Still in this series, the particulars now being: late stage modification step, trifluoroacetate.
In the case of Z-Glu(γOBut)-Ala-Tyr-Gly-OH, the step yield stood at 75%.

The substance --H--Met--gly--Trp--Met--Asp--NH2 returned a step yield of 85%.

Substance PEPTIDE1{[Boc].Y.G.W.M.D.[am]}$$$$V2.0 had a step yield of 56%.

For “Z--Tyr(HSO3)--Met--Gly--Trp--Met--Asp--NH2”, the step yield is given as 55%.

For the substance “--Z--Glu--Ala--Tyr--Gly--Trp--Met--Asp--NH2”, the step yield is on record as 97%.
